Assay [1] deals with T1, mCherry-cyclin F (p.M309A/R310A) (UniProt P41002).
T1 sequence: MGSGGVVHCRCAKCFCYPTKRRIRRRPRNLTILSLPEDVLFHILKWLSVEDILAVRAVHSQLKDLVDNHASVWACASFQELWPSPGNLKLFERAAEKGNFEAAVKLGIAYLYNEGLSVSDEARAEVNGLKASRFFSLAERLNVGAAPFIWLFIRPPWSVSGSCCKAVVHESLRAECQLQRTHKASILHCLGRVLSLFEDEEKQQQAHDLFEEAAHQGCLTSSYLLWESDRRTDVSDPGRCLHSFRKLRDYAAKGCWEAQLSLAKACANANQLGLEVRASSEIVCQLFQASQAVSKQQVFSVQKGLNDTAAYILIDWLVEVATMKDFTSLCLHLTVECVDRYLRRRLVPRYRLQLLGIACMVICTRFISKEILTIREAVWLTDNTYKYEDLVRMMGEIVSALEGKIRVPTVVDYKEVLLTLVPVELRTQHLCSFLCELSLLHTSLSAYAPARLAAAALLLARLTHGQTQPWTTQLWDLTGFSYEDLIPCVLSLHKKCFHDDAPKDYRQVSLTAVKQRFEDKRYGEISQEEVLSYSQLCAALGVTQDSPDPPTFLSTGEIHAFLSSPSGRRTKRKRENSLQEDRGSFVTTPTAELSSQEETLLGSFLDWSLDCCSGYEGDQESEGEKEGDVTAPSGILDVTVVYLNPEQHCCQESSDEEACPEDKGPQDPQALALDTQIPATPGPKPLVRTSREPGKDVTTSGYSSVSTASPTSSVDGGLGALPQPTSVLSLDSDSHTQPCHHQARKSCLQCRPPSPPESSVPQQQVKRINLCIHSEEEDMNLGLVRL
Briefly: co-IP; HEK293 cells transiently expressing mCherry-cyclin F WT or mutants (or mCherry alone); NP-40 lysis buffer; about 500 µg cellular protein; RFP-Trap magnetic beads on the mCherry tag; endogenous partners detected by immunoblot. A general note: A western blot detects proteins with antibodies after separation by electrophoresis.

Protein sequences, listed by entry. Tags and fused reporters are not part of them.
UniProt P63208: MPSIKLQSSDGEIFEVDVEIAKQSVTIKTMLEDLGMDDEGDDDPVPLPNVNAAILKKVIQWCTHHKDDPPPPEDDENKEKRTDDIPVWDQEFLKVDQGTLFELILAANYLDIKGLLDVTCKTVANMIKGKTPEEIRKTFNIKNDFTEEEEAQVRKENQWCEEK

The target of assay [2] is T2, mCherry-cyclin F WT (UniProt P41002).
T2 sequence: T1 sequence with A309M, A310R
Described as above.

For assay [3], the target named is T3, mCherry-cyclin F p.S621G (UniProt P41002).
T3 sequence: T1 sequence with A309M, A310R, S621G
The description is as above.

The target in assay [4] is T4, endogenous cyclin F (human (endogenous in HEK293)) (UniProt P41002).
T4 sequence: T1 sequence with A309M, A310R
Briefly: proximity ligation; Duolink in situ PLA on fixed, permeabilised asynchronous HEK293 cells; mouse anti-cyclin F with rabbit anti-p62 or rabbit anti-cdc6; foci (< 40 nm proximity) counted per cell.

Positions count from the first letter of the chain named. Results are given in words; binding and its absence hold for the method and conditions named. Binding seen in cells or lysates may run through a third protein. Some binding calls cover weakened binding; strength is not graded here.

As for Skp1 (from UniProt P63208 1-163), the binding entry in assay [1], in assay [2] and in assay [3] was “binds” each time.

B1: cell division cycle 6 (CDC6) (protein, UniProt Q99741 1-560)
chain: MPQTRSQAQATISFPKRKLSRALNKAKNSSDAKLEPTNVQTVTCSPRVKALPLSPRKRLGDDNLCNTPHLPPCSPPKQGKKENGPPHSHTLKGRRLVFDNQLTIKSPSKRELAKVHQNKILSSVRKSQEITTNSEQRCPLKKESACVRLFKQEGTCYQQAKLVLNTAVPDRLPAREREMDVIRNFLREHICGKKAGSLYLSGAPGTGKTACLSRILQDLKKELKGFKTIMLNCMSLRTAQAVFPAIAQEICQEEVSRPAGKDMMRKLEKHMTAEKGPMIVLVLDEMDQLDSKGQDVLYTLFEWPWLSNSHLVLIGIANTLDLTDRILPRLQAREKCKPQLLNFPPYTRNQIVTILQDRLNQVSRDQVLDNAAVQFCARKVSAVSGDVRKALDVCRRAIEIVESDVKSQTILKPLSECKSPSEPLIPKRVGLIHISQVISEVDGNRMTLSQEGAQDSFPLQQKILVCSLMLLIRQLKIKEVTLGKLYEAYSKVCRKQQVAAVDQSECLSLSGLLEARGILGLKRNKETRLTKVFFKIEEKEIEHALKDKALIGNILATGLP
Turning to B1, the binding result in assay [4] and in assay [2] was “binds” in each case.

Values taken from paper PMC10415446.
